Measurements as given in the supplement of paper PMC5949888.
Most values lie at the floor of the assay. Slopes are relative: functional sequences can read slightly below zero.

These substances were tested on Saccharomyces cerevisiae PS128 hsf1 delta, HSF1(1-493) fusion (assay: growth estimate (transactivation domain function in HSF1 fusion, heat-shock survival) (a.u. (slope of normalised read count over time)); higher = stronger growth at 37°C, i.e. more transactivation activity). Conditions: library: random library.

| Substance | growth estimate |
| --- | --- |
| PIGFSPVEIEHCIASGREWF | < -0.25 |
| PIGGRGAV | < -0.25 |
| PIGNV | -0.247 |
| PIIRCVTKESTVMRHNVRSP | < -0.25 |
| PIKAIPSRLLLVLDQSLSFH | < -0.25 |
| PILLQ | < -0.25 |
| PIMVASVSKTSYFVPYL | < -0.25 |
| PINC | < -0.25 |
| PIQVIKRAC | < -0.25 |
| PIRCR | < -0.25 |
| PISIF | < -0.25 |
| PISSGRRADPVAWGYDL | -0.237 |
| PIVGRYLFK | < -0.25 |
| PKATGAIAKSPVAGVEGPRT | < -0.25 |
| PKAVVAQGLCSLTHTYRADY | -0.214 |
| PKCGVKAAEGGF | < -0.25 |
| PKCLGVIGHIGSGSGDALA | < -0.25 |
| PKCTLTSVVNKLN | < -0.25 |
| PKERHLSEPCEWTGKINLVA | < -0.25 |
| PKFVGKG | < -0.25 |
| PKGKRLRNCSGYGSRESSVS | < -0.25 |

Pulled one by one from the list above, 6 records:

| Substance | growth estimate |
| --- | --- |
| PIVGRYLFK | < -0.25 |
| PKFVGKG | < -0.25 |
| PISIF | < -0.25 |
| PIGFSPVEIEHCIASGREWF | < -0.25 |
| PKCTLTSVVNKLN | < -0.25 |
| PIIRCVTKESTVMRHNVRSP | < -0.25 |

The results go on.

| Substance | growth estimate |
| --- | --- |
| PKIMGDGVGRQVSLGLGGKS | < -0.25 |
| PKIRRTRVLHCRLASKPVPY | < -0.25 |
| PKKTVVRSYR | < -0.25 |
| PKLGGTSVGSWKHFSSEFRQ | < -0.25 |
| PKQARPREHGR | < -0.25 |
| PKSPLL | < -0.25 |
| PKT | < -0.25 |
| PKTERS | < -0.25 |
| PKTSEEEIGSLFTWLFSAEH | 0.289 |
| PKVSRRNVKAGTDQTAQVKL | < -0.25 |
| PKVWLTRLSSDNSASTSATF | < -0.25 |
| PKWQVLRIFPRHDALFAHRA | -0.246 |
| PLA | < -0.25 |
| PLAITLPVLLANASTLSLTS | < -0.25 |
| PLASSQKTWGMETGRIHVTW | < -0.25 |
| PLDGD | < -0.25 |
| PLEYGDLTLHA | < -0.25 |
| PLFYPGRQSAR | < -0.25 |
| PLGARTGRLLPMVLRFTIFS | < -0.25 |
| PLGGSA | < -0.25 |
| PLGPKFQLKQLP | < -0.25 |

| Substance | growth estimate |
| --- | --- |
| PLGVCLTDGHQGTVDPAGLT | < -0.25 |
| PLIHQINARYLYHHNQEYRA | < -0.25 |
| PLIMVSSVGRFVEAFVDTTS | -0.229 |
| PLKLLDLAHVCLGGGGKVER | < -0.25 |
| PLKWNAPFGLGFLFRSIIRV | < -0.25 |
| PLLASLQRASLGCQFRTVRY | < -0.25 |
| PLLGQKQSVLPSPATTMGWG | < -0.25 |
| PLLIVS | < -0.25 |
| PLLQG | -0.0363 |
| PLLTIS | < -0.25 |
| PLMSLPQDCSWCGAGTEA | < -0.25 |
| PLPR | < -0.25 |
| PLPSRLRQTIE | < -0.25 |
| PLQRCQDLCLFCRELRLRAD | < -0.25 |
| PLRDKWPPWESGDCSHGARA | < -0.25 |
| PLREPALFFLSDRLLPWVAR | < -0.25 |
| PLRMRFSC | < -0.25 |
| PLSLALGYNPFSVIVQEGGG | < -0.25 |
| PLSVQRL | < -0.25 |
| PLSYFGGSAGANKGSTAPHV | < -0.25 |
| PLTCRCIV | < -0.25 |

| Substance | growth estimate |
| --- | --- |
| PLTGRIKAQLNRREYCGDLW | < -0.25 |
| PLTRLSRGLSI | < -0.25 |
| PLTRPEGLIQQALV | < -0.25 |
| PLVPSLVVSGRSLLSHTLGN | < -0.25 |
| PLVRARVTRPSSLYGSSRRS | < -0.25 |
| PLVTGRGSSLLARWVRRNYG | < -0.25 |
| PLWSSST | < -0.25 |
| PLYL | < -0.25 |
| PLYRPSLAGT | < -0.25 |
| PMDAAMSERV | < -0.25 |
| PMDAG | < -0.25 |
| PMDRVGSLASL | < -0.25 |
| PMGARDYNKL | < -0.25 |
| PMKKNRC | < -0.25 |
| PMKVTAGPRCLGNGMLISIV | < -0.25 |
| PMLYKGEDSLLSFEFWEPNG | -0.25 |
| PMMVHDVCLPIYLYQRALRV | < -0.25 |
| PMNRF | < -0.25 |
| PMQR | < -0.25 |
